{
  "sequences": {"note": "Sequences of proteins named here, by UniProt entry; tags and fusion partners are left off. Residues count along the entry.", "UniProt Q9D777, residues 96-241": "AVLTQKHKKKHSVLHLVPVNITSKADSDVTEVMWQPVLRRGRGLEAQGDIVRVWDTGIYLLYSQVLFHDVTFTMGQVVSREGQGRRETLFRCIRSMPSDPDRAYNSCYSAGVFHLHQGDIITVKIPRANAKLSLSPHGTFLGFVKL"},
  "source": "patent EP1746106A2",
  "target": "hTACI(32-114)-Ig (human)",
  "assay": "ELISA, hTACI(32-114)-Ig coated at 5 ug/ml, APRIL added at 0.0048 to 3 µg/ml (Figure 14 legend)",
  "note": "No constants are given. Whether binding was seen depends on the method and setting. Some binding calls cover weakened binding; strength is not graded here.",
  "data": [
    {"substance": "murine APRIL (protein preparation of Example 9, tag not stated) (from UniProt Q9D777 96-241) (ligand)", "values": [
      {"measurement": "binding", "value": "binds"}
    ]}
  ]
}
